These results are taken from paper PMC11394131.

The chains behind the UniProt entries cited, without tags or fusion partners. Residues count along the entry.
UniProt A2IDD5: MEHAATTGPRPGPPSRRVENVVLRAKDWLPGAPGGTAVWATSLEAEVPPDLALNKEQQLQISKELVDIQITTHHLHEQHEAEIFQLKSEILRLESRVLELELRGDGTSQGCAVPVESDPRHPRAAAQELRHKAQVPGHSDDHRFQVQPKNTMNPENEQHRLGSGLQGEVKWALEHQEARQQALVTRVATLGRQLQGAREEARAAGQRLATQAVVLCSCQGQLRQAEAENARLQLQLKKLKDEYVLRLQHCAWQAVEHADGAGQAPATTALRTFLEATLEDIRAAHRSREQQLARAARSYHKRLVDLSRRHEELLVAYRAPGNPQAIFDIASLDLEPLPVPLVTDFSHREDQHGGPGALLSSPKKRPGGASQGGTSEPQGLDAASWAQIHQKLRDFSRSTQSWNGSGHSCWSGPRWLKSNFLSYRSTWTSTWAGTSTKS
UniProt P35609: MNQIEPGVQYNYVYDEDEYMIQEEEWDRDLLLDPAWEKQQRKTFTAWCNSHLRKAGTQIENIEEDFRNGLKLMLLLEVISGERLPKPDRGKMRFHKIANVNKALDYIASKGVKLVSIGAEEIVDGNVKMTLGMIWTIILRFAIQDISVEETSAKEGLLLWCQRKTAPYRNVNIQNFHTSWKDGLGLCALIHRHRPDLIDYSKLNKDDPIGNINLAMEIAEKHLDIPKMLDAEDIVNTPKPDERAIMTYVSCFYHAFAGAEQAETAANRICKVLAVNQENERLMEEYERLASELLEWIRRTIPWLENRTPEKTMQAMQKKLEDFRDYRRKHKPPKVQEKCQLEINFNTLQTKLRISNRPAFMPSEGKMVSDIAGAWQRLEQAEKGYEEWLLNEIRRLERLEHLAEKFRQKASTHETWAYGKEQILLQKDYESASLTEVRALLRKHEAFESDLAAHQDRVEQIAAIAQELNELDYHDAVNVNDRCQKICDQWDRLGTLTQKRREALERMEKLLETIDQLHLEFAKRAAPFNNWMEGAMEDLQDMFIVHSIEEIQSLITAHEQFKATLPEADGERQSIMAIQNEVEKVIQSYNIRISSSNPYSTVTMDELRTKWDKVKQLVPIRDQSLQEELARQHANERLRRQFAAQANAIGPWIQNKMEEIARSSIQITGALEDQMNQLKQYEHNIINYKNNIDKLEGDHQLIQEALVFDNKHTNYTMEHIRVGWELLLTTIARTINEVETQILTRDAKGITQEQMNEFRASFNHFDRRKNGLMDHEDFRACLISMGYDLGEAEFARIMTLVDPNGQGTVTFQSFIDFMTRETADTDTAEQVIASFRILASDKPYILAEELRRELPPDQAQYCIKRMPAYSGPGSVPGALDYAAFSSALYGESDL
UniProt P31415, residues 35-396: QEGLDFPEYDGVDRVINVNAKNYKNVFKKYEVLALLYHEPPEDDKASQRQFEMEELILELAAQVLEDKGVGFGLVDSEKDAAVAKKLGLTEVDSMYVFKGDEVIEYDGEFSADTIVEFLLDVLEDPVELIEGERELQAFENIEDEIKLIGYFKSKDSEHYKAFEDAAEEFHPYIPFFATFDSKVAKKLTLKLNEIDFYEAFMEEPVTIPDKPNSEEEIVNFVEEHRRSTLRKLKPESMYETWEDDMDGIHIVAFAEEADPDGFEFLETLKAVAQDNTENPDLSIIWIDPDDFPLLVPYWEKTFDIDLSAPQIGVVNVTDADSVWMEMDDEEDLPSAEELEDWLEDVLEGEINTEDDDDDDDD
UniProt P12882: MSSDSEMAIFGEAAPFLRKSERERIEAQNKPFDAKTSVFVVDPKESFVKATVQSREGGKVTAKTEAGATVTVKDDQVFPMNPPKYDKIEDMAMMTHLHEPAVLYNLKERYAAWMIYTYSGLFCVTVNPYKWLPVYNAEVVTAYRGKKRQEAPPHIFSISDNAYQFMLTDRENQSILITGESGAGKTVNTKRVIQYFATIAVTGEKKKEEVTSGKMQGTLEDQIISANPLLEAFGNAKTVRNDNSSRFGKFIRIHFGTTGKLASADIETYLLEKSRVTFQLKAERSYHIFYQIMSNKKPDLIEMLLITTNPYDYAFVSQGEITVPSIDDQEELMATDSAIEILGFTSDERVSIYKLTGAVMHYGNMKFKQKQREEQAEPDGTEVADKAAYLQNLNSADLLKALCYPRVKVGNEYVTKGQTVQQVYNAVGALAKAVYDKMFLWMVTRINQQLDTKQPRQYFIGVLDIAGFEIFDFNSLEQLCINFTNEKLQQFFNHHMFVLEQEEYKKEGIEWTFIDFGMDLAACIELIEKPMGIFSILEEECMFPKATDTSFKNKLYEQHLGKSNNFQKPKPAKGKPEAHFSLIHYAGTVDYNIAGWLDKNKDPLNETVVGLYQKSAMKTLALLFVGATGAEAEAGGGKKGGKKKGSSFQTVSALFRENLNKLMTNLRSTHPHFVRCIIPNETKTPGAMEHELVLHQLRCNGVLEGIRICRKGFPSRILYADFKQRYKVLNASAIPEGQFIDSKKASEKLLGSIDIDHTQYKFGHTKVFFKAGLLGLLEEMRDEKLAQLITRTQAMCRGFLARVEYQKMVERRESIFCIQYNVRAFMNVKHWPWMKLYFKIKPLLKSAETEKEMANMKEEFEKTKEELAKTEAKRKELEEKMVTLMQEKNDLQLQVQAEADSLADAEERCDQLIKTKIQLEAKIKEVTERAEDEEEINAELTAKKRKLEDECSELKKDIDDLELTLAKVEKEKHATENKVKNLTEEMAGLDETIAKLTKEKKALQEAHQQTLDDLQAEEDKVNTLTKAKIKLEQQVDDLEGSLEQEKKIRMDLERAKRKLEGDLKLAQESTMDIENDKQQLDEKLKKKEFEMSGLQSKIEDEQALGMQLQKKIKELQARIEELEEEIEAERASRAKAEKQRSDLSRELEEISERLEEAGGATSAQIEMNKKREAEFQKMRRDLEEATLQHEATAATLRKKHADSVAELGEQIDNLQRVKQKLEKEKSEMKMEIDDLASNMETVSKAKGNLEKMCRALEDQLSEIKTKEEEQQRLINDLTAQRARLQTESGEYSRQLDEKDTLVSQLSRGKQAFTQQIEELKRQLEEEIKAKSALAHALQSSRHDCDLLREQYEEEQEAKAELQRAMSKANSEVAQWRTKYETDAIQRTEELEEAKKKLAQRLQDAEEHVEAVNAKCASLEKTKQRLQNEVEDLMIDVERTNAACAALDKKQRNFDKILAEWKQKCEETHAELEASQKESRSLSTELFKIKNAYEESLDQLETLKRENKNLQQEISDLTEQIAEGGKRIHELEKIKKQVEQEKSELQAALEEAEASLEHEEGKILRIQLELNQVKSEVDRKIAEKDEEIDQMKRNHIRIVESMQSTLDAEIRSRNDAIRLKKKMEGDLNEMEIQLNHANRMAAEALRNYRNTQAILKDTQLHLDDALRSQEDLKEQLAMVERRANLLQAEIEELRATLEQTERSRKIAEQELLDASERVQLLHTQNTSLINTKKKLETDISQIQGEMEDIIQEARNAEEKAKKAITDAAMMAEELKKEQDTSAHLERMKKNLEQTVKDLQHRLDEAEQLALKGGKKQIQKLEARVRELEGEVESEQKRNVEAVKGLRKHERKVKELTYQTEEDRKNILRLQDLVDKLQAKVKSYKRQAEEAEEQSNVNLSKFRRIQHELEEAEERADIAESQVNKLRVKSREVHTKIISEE
UniProt O14983: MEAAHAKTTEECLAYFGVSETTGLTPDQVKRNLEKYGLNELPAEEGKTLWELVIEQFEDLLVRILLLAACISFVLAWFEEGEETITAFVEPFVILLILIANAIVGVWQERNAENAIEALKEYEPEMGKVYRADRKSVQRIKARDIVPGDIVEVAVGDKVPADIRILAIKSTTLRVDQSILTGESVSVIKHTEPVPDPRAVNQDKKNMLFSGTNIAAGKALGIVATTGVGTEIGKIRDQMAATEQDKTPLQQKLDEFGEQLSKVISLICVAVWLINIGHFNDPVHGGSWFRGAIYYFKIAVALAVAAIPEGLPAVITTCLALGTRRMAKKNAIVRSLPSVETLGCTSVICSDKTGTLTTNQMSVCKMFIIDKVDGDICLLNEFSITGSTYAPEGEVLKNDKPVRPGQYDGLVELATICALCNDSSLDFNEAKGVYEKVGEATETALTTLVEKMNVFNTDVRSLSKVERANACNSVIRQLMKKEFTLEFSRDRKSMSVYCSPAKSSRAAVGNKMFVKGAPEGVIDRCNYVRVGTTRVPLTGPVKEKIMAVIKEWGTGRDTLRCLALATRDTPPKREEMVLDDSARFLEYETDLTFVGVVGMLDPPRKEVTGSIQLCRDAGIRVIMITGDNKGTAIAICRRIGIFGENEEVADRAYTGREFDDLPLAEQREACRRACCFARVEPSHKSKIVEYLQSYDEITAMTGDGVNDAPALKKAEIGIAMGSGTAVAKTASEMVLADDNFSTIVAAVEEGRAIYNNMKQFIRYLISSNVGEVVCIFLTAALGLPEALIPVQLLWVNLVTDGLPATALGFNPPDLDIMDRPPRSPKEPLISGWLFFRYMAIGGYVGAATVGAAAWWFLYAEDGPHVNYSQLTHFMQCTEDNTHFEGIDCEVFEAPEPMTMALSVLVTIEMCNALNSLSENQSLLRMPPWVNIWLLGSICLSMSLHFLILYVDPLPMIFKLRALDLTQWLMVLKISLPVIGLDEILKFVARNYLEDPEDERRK

No constants are given. Whether binding was seen depends on the method and setting. In cells and extracts the contact can be indirect. Here binding means that the protein was enriched with, or labelled near, the bait; the list need not be complete.

This test has as its target coiled-coil domain-containing protein 78 (CCDC78), wild type, of healthy control muscle (human (endogenous in muscle tissue)) (UniProt A2IDD5). Put plainly: affinity purification with mass spectrometry; muscle lysate of a healthy control precipitated with anti-CCDC78 (AV53233) cross-linked with DSS to magnetic beads; SDS-PAGE, Coomassie blue; seven bands cut out, digested with trypsin, nLC-nESI-HRMS/MS, Mascot search.
As to “alpha-actinin-2 (ACTN2) (from UniProt P35609 1-894)”, the binding entry is on record as “binds”.
As to “calsequestrin1 (from UniProt P31415 35-396)”, the binding result was “binds”.
On to “myosin-1 (MYH1) (from UniProt P12882 1-1939)”, for which the binding entry is recorded as “binds”.
Consider “sarco-endoplasmic reticulum calcium ATPase1 (from UniProt O14983 1-1001)”, for which the binding result is reported as “binds”.
